T1: VN-Exd (Extradenticle fused to the N-terminal fragment of Venus) (Drosophila (D. melanogaster)) (UniProt P40427)
T1 sequence: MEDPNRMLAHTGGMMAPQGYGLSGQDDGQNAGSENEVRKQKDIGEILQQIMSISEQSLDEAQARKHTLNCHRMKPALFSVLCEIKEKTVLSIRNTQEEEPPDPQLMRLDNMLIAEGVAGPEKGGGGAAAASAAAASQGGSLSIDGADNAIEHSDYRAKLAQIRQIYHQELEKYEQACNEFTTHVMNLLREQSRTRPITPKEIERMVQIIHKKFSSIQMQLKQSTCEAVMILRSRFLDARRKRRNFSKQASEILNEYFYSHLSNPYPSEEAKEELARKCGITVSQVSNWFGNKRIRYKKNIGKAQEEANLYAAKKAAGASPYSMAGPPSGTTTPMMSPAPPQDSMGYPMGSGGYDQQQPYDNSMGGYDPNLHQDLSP

Sequences of proteins named here, by UniProt entry; tags and fusion partners are left off.
UniProt P29555: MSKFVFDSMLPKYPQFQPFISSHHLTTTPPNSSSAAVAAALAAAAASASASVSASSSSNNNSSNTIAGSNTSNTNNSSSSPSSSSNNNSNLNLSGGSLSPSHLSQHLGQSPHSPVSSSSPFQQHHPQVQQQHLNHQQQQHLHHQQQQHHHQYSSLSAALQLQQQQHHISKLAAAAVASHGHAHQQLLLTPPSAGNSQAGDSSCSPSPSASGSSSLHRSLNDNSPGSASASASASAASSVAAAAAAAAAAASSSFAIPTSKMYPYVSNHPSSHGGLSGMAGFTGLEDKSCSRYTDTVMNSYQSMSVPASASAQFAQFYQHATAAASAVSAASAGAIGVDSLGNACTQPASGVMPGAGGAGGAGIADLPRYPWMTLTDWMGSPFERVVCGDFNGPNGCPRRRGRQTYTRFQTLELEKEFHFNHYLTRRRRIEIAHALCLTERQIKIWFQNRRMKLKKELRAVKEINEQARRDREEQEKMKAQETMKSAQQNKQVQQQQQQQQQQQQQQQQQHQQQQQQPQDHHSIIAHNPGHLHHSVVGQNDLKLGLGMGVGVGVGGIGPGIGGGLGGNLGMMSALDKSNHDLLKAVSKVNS

T2: VC-Exd (Extradenticle fused to the C-terminal fragment of Venus) (Drosophila (D. melanogaster)) (UniProt P40427)
T2 sequence: T1 sequence

B1: Knirps ORF-CC (Kni-CC) (protein, UniProt P10734 1-429)
chain: MNQTCKVCGEPAAGFHFGAFTCEGCKSFFGRSYNNISTISECKNEGKCIIDKKNRTTCKACRLRKCYNVGMSKGGSRYGRRSNWFKIHCLLQEHEQAAAAAGKAPPLAGGVSVGGAPSASSPVGSPHTPGFGDMAAHLHHHHQQQQQQQVPRHPHMPLLGYPSYLSDPSAALPFFSMMGGVPHQSPFQLPPHLLFPGYHASAAAAAASAADAAYRQEMYKHRQSVDSVESQNRFSPASQPPVVQPTSSARQSPIDVCLEEDVHSVHSHQSSASLLHPIAIRATPTTPTSSSPLSFAAKMQSLSPVSVCSIGGETTSVVPVHPPTVSAQEGPMDLSMKTSRSSVHSFNDSGSEDQEVEVAPRRKFYQLEAECLTTSSSSSSHSAAHSPNTTTAHAEVKRQKLGGAEATHFGGFAVAHNAASAMRGIFVCV
B2: Bagpipe ORF-CC (Bap-CC) (protein, UniProt P22809 1-382)
chain: MLNMESAGVSAAMAGLSKSLTTPFSINDILTRSNPETRRMSSVDSEPEPEKLKPSSDRERSISKSPPLCCRDLGLYKLTQPKEIQPSARQPSNYLQYYAAAMDNNNHHHQATGTSNSSAADYMQRKLAYFGSTLAAPLDMRRCTSNDSDCDSPPPLSSSPSESPLSHDGSGLSRKKRSRAAFSHAQVFELERRFAQQRYLSGPERSEMAKSLRLTETQVKIWFQNRRYKTKRKQIQQHEAALLGASKRVPVQVLVREDGSTTYAHMAAPGAGHGLDPALINIYRHQLQLAYGGLPLPQMQMPFPYFYPQHKVPQPIPPPTQSSSFVTASSASSSPVPIPIPGAVRPQRTPCPSPNGQMMSVESGAESVHSAAEDVDENVEID
B3: Tinman ORF-CC (Tin-CC) (protein, UniProt P22711 1-416)
chain: MLQHHQQQAQSGGYYDHYTQSPSPGSLTNADALNTTPFSVKDILNMVNQTEAYEGSYGHIDGAATASALFAAGEYQNPHQYLNHQQHQQSELPIPQQQLHHQHLDDGATTSSSLSPLLPPPPHQLYGGYQDYGMPAHMFQHHHGHPHQSFQHSASAYNMSASQFYAGASATAYQTPATYNYNYAGSGEVYGGATPSAVGIKSEYIPTPYVTPSPTLDLNSSAEVDSLQAPTQKLCVNPLSQRLMETASNSSSLRSIYGSDEGAKKKDNSQVTSSRSELRKNSISGNSNPGSNSGSTKPRMKRKPRVLFSQAQVLELECRFRLKKYLTGAEREIIAQKLNLSATQVKIWFQNRRYKSKRGDIDCEGIAKHLKLKSEPLDSPTSLPPPIPNHVMWPPTMQQSQQQQQHHAQQQQMQHM
B4: Knirps ORF-3xHA (Kni-HA) (protein, UniProt P10734 1-429)
chain: B1 chain
B5: Empty spiracles ORF-3xHA (Ems-HA) (protein, UniProt P18488 1-494)
chain: MTKMIPPVPTAAAAVMMPTPKQKIGFSIESIVGNDVSTAGGNSTPDLSGPQSPPPGERNVPGSPPQTPPATLTLIPGSPPHHLMAPPAHGLPYPHPHAQQQHLQAPHPHPHLSPAQQHVLHQHLLMQQQHPGTPKSHQDIQELLQRLHHNAAMASGLSPLQTRLSPETEQPQMAVSLKRERSPAPPAMEQAENPAQRIQPPHTPPKSVSPQSSQPSSSPTLLISSPHATPPQQQQQQPPPNYPKPAMMHPGGAGPMMMPGMPPAGLVRPFPMGPGGPPMPQGQPGLPDIKALPPYINAPPELPPQHNPHLIAAAQFQMAAALQAGHVLGPAAAAAAAAGLPPHAAQFMPNPGMARDSYQLYPWLLSRHGRIFPHRFPGSFLVPPFRKPKRIRTAFSPSQLLKLEHAFESNQYVVGAERKALAQNLNLSETQVKVWFQNRRTKHKRMQQEDEKGGEGGSQRNMHNGSGDEDDDELIDMEMDECPSDEEHELDASH
B6: Bagpipe ORF-3xHA (Bap-HA) (protein, UniProt P22809 1-382)
chain: B2 chain
B7: Tinman ORF-3xHA (Tin-HA) (protein, UniProt P22711 1-416)
chain: B3 chain
B8: Empty spiracles fused to VN (protein, UniProt P18488 1-494)
chain: B5 chain
B9: Bagpipe fused to VN (protein, UniProt P22809 1-382)
chain: B2 chain
B10: Tinman fused to VN (protein, UniProt P22711 1-416)
chain: B3 chain

No constants are given. Whether binding was seen depends on the method and setting. Binding seen in cells or lysates may run through a third protein. Some entries that bind do so weakly or less than the wild type. For some assays here: Tags and fused reporters may be left off the sequences shown.

For the first experiment, the target named is CN-AbdA (AbdominalA fused to the N-terminal fragment of Cerulean) (Drosophila (D. melanogaster)) (UniProt P29555). Briefly: split reporter; Venus- or Cerulean-based BiFC in live Drosophila embryos; ORF-CC with VN-AbdA or CN-AbdA; abdA-Gal4 driver (epidermis, stage 10/11) or 24B-Gal4 driver (somatic mesoderm, stage 14); confocal observation.
With B1, the binding entry is “binds”.

With B2, the binding result was “binds”.

In the case of B3, the binding entry is recorded as “binds”.

Another experiment deals with VN-AbdA (AbdominalA fused to the N-terminal fragment of Venus) (Drosophila (D. melanogaster)) (UniProt P29555). The experiment is described as above.
For B1, the binding result is recorded as “binds”.

Consider B2, for which the binding entry was “binds”.

B3: the binding result is given as “binds”.

The target is the same in another experiment. Briefly: split reporter; BiFC competition in live Drosophila embryos: VN-AbdA and ORF-CC with co-expression of the corresponding non-complementing ORF-3xHA; abdA-Gal4 driver, epidermis of stage 10/11 embryos; identical parameters of confocal acquisition.
For the molecule B4, the binding entry is recorded as “binds”.

As for B1, the binding entry was “binds”.

Turning to B5, the binding entry was “binds”.

With B2, the binding result is “binds”.

With B6, the binding result is reported as “binds”.

With B3, the binding entry is “binds”.

On to B7, for which the binding result was “binds”.

In a further experiment the target is T1, VN-Exd (Extradenticle fused to the N-terminal fragment of Venus) (Drosophila (D. melanogaster)). Briefly: split reporter; bicolour BiFC in live Drosophila embryos: ORF-CC co-expressed with CN-AbdA, VN-Exd and a mCherry reporter; abdA-Gal4 driver, stage 10 embryos.
As for B2, the binding result is listed as “binds”.

Consider B3, for which the binding result is on record as “binds”.

For a further experiment, the target named is CN-AbdA (AbdominalA fused to the N-terminal fragment of Cerulean) (Drosophila (D. melanogaster)) (UniProt P29555). The experiment is described as above.
For B2, the binding entry is recorded as “binds”.

Consider B3, for which the binding entry is “binds”.

A further experiment deals with T2, VC-Exd (Extradenticle fused to the C-terminal fragment of Venus) (Drosophila (D. melanogaster)). Briefly: split reporter; Venus-based BiFC in live Drosophila embryos; TFs fused to VN with VC-Exd; abdA-Gal4 driver, epidermis of stage 10 embryos.
B8: the binding entry is listed as “no binding”.

As to B9, the binding entry is “binds”.

Regarding B10, the binding result was “binds”.

The values above are taken from publication PMC6177257.
